Source: the supplement of paper PMC10849652
This is one part of the list.

Amino acid sequences for entries named in this document (tags omitted). A change or cut given only in a name is not applied to a line headed by its entry.
UniProt Q9H3S7: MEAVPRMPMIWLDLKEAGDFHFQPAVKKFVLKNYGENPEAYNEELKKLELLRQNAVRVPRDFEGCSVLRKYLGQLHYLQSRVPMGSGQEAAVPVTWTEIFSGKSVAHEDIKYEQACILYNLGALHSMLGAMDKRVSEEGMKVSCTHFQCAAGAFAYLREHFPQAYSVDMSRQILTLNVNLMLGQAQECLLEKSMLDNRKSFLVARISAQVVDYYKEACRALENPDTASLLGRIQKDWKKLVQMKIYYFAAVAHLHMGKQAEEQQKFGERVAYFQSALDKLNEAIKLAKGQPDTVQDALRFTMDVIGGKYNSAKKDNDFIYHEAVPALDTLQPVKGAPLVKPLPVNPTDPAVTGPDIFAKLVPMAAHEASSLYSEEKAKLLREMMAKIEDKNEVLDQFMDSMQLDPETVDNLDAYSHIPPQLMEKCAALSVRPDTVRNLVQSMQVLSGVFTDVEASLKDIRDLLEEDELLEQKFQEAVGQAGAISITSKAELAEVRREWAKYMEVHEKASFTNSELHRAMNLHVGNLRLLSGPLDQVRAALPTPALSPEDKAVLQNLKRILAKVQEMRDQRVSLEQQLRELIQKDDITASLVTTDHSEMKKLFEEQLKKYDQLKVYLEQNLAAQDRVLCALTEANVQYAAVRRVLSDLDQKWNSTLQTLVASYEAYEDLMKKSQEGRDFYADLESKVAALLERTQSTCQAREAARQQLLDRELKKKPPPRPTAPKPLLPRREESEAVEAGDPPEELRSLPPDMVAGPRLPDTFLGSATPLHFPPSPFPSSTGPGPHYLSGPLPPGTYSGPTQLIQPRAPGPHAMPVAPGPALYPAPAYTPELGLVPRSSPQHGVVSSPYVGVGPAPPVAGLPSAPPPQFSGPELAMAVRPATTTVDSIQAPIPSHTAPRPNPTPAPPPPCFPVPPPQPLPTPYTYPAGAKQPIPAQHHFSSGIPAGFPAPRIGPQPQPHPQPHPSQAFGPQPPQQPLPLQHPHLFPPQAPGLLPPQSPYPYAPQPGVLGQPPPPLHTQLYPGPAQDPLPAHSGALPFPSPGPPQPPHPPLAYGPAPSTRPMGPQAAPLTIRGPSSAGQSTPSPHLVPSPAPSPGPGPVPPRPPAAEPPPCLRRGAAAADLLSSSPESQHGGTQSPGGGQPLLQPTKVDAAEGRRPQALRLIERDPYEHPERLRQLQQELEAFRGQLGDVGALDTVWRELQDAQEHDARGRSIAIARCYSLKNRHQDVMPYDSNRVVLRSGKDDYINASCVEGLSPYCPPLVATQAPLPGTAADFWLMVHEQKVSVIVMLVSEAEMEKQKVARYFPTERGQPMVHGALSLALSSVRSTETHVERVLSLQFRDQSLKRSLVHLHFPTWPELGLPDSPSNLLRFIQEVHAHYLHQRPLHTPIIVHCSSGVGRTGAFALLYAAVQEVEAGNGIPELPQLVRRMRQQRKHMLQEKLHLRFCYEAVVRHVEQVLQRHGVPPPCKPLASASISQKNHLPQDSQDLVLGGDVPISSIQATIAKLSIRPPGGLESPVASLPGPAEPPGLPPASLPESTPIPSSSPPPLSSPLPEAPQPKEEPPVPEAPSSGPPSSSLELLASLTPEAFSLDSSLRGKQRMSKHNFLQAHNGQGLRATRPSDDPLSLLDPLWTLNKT
UniProt P60484: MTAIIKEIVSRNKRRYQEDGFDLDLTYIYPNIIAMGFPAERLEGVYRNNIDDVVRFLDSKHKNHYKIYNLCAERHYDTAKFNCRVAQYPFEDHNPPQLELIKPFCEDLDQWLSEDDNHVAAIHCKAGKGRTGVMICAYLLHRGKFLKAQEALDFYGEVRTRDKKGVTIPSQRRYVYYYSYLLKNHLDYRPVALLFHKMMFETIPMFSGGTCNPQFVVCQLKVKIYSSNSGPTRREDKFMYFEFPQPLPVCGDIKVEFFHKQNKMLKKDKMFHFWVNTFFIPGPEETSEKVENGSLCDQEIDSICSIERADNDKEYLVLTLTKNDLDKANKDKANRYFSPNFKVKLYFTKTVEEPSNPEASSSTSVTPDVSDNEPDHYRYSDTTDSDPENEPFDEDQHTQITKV
UniProt P23467: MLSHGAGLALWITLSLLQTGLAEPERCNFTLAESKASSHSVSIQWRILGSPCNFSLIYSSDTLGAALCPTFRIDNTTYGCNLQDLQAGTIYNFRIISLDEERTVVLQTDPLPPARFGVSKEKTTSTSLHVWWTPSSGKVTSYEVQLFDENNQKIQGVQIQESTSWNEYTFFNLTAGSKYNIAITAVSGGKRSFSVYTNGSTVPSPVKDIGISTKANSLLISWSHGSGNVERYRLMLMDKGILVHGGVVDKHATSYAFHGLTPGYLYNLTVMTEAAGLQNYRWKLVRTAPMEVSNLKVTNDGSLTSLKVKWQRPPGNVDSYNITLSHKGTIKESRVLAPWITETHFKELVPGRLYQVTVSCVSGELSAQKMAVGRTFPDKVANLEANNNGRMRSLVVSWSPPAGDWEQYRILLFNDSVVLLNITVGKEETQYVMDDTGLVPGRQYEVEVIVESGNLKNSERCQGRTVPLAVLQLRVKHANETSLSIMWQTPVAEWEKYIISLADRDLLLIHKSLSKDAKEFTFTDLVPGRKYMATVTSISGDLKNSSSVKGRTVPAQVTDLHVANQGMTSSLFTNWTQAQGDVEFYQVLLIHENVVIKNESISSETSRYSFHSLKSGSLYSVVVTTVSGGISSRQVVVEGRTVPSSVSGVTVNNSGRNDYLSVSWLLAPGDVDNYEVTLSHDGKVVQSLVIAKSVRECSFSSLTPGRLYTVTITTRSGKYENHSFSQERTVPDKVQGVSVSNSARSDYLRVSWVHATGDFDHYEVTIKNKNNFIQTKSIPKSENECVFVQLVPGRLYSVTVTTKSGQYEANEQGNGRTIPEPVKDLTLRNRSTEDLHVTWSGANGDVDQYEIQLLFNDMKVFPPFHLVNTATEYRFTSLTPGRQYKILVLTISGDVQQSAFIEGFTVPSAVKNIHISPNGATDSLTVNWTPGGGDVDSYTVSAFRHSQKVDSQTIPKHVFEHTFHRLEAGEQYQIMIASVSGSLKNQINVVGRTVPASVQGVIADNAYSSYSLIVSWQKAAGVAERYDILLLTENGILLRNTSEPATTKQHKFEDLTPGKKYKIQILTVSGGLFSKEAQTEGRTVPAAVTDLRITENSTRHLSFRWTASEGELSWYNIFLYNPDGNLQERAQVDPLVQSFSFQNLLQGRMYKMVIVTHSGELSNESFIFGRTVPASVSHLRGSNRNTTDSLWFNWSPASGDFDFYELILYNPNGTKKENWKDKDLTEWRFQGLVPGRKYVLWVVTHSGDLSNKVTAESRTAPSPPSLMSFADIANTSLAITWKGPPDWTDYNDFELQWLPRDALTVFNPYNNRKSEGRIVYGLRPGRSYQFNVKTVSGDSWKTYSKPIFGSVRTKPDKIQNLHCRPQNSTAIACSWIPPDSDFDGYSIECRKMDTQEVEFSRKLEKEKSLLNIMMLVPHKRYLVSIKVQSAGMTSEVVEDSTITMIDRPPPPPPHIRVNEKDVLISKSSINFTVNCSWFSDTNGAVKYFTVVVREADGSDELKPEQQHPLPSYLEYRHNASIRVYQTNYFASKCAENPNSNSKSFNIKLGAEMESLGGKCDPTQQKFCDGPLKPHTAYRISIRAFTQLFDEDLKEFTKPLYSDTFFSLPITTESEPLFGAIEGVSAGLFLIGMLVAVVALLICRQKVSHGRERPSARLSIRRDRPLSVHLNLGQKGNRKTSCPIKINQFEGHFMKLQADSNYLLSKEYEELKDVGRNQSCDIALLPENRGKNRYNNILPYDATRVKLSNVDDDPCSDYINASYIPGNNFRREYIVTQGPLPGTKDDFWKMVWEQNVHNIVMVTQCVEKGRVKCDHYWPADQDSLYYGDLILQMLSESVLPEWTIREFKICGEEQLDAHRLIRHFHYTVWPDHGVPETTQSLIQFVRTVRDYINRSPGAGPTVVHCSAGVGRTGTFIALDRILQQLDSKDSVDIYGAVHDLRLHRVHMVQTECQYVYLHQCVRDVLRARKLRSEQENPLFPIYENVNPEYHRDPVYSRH
UniProt Q9BZE2: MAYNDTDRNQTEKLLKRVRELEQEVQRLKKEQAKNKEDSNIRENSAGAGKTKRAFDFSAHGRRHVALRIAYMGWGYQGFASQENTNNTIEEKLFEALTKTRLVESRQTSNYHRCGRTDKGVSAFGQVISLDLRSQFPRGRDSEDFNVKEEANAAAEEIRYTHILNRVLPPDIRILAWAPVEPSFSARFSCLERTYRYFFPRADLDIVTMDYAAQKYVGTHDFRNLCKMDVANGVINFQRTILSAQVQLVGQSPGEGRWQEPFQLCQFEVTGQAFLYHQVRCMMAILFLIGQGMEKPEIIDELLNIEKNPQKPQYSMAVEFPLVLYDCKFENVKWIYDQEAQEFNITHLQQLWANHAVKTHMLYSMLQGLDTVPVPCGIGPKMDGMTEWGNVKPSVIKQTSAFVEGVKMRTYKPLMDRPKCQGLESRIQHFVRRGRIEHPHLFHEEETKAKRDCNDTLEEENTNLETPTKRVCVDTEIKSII
UniProt P28072: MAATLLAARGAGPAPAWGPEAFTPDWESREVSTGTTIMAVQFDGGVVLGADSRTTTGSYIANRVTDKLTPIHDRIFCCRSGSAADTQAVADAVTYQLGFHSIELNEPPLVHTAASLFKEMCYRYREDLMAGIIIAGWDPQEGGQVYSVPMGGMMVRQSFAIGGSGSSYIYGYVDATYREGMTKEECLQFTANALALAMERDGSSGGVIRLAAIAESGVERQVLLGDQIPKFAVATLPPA
UniProt P62333, whole entry, looked up: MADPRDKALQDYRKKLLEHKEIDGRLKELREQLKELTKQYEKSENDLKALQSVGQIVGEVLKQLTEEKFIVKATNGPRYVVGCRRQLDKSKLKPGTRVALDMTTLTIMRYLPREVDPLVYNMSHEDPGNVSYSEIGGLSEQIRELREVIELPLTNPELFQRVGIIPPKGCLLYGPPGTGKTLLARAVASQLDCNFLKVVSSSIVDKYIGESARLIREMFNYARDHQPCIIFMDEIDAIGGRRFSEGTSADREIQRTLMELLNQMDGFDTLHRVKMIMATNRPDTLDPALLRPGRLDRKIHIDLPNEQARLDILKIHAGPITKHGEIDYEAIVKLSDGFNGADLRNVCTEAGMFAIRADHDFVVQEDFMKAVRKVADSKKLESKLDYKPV
UniProt Q6PGN9: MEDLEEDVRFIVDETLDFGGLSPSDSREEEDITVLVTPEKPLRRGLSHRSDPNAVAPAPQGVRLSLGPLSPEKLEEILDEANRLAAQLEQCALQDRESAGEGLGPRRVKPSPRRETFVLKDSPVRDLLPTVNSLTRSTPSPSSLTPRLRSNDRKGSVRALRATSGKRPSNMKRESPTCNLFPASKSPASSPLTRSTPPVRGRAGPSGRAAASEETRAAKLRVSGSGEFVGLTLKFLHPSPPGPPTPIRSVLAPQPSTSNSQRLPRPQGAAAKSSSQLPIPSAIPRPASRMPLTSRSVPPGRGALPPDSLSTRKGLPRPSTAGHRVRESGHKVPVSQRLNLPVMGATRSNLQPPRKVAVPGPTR
UniProt Q05397, whole entry, looked up: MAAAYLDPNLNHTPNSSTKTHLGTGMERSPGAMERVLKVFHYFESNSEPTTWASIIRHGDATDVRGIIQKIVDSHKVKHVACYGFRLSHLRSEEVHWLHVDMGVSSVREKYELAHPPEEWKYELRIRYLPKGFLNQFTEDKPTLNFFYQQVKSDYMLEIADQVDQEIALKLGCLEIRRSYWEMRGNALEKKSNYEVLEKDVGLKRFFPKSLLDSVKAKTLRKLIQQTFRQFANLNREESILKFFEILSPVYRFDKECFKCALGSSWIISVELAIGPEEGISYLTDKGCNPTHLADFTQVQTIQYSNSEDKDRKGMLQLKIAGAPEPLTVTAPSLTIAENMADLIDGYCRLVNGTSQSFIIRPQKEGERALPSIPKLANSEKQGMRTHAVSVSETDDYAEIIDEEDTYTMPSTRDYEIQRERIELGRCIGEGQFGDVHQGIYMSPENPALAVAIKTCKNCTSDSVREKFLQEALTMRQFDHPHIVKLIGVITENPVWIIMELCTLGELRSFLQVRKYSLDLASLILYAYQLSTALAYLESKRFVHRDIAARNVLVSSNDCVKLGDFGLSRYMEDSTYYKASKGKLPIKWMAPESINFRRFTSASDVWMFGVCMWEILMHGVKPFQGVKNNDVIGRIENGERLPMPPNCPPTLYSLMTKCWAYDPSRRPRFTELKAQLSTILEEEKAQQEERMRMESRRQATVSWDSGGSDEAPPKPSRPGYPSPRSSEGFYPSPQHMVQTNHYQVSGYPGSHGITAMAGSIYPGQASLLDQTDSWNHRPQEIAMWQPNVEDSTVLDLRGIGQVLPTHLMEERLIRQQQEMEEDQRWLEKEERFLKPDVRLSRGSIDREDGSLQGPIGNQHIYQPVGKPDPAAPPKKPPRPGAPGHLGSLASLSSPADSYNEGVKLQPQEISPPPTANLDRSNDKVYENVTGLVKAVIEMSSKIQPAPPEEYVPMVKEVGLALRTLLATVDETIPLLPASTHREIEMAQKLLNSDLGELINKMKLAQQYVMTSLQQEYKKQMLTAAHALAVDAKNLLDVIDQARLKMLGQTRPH

Assays:
Assay in all cases: log2 fold change, soluble protein after heating vs DMSO (PISA); higher = thermal stabilisation; K562 lysate, 10 uM; active = over 0.2 and 3.5 SD of the protein, either way, in both replicates (recomputed)
ibrutinib = compound: C=CC(=O)N1CCC[C@@H](n2nc(-c3ccc(Oc4ccccc4)cc3)c3c(N)ncnc32)C1 [ibrutinib]
In short: (§1)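 To prepare the extract, K562 pellets were dounce-homogenised in PBS pH 7.4 with 1 mM MgCl2, giving crude material at 1 mg/mL protein. This was treated with 10 μM compound for 30 min, then heated in aliquots for 3 min over 48°C-58°C before pooling and addition of NP-40 to 0.5% at 4°C. Centrifugation at 21,000xg for 90 min left soluble protein in the supernatant, which TMTpro 16plex LC-MS/MS quantified with equalised channel sums. Results are log-two fold changes in thermal stability compared with solvent controls, from duplicates.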

[1] = compound: CC(=O)c1cnc2ccc(-c3cc(Cl)c(O)c(Cl)c3)nc2c1N[C@H]1CC[C@H](CN(C)C)CC1
In short: as §1

ralimetinib = compound: CC(C)(C)Cn1c(N)nc2ccc(-c3[nH]c(C(C)(C)C)nc3-c3ccc(F)cc3)nc21 [ralimetinib]
In short: as §1

[2] = compound: CC(C)(O)CC(=O)NCCn1ccc2ncnc(Nc3ccc(Oc4cccc(C(F)(F)F)c4)c(Cl)c3)c21
In short: as §1

[3] = compound: CC(C)C1=C2N=C(C=C(N2N=C1)NCC3=CC=CC=C3)NCCCCCCN
In short: as §1

[4] = compound: CC1=C(C(CC(=O)N1)C2=CC=C(C=C2)C(F)(F)F)C(=O)NC3=C(C=C4C(=C3)C=NN4)F
In short: as §1

[5] = compound: CC1=C(C2=C(C=C1)C(=O)C3=CC=CC=C3N2CCCN)C
In short: as §1

[6] = compound: CC1=C(C=C(C=C1)NC(=O)C2=CC(=CC=C2)C(C)(C)C#N)NC3=CC4=C(C=C3)N=CN(C4=O)C
In short: as §1

[7] = compound: CC1=C(C=C(C=C1)NC(=O)C2=CC(=CC=C2)N(C)C)NC(=O)C3=CC=C(C=C3)O
In short: as §1

[8] = compound: CC1=CC=C(C=C1)SC2=C3C=C(SC3=CN=C2)C(=O)N
In short: as §1

Measured: log2 fold change

PTPN23 (UniProt Q9H3S7)
inactive: ibrutinib 0.024 | [1] 0.007 | ralimetinib 0.029 | [2] 0.007 | [3] -0.019 | [4] -0.014 | [5] 0.01 | [6] -0.015 | [7] 0.009 | [8] 0.012

PVR (UniProt P15151)
inactive: ibrutinib 0.073 | [1] -0.027 | ralimetinib 0.032 | [2] -0.029 | [3] -0.056 | [4] -0.06 | [5] -0.009 | [6] 0.004 | [7] -0.006 | [8] -0.227

PTMA (UniProt P06454)
inactive: ibrutinib 0.015 | [1] 0.028 | ralimetinib -0.121 | [2] 0.009 | [3] 0.004 | [4] -0.068 | [5] 0.006 | [6] 0.023 | [7] -0.015 | [8] 0.002

PTPN18 (UniProt Q99952)
inactive: ibrutinib 0.107 | [1] -0.092 | ralimetinib 0.028 | [2] 0.029 | [3] 0.066 | [4] -0.024 | [5] -0.065 | [6] 0.049 | [7] 0.071 | [8] -0.056

PSMC5 (UniProt P62195)
inactive: ibrutinib -0.005 | [1] 0.043 | ralimetinib 0.009 | [2] 0 | [3] 0.021 | [4] 0.015 | [5] -0.03 | [6] 0 | [7] -0.02 | [8] 0.038

PRRC2C isoform 7 (UniProt Q9Y520)
inactive: ibrutinib 0.023 | [1] -0.016 | ralimetinib -0.006 | [2] -0.018 | [3] 0.002 | [4] 0.025 | [5] -0.032 | [6] -0.059 | [7] 0.011 | [8] -0.021

PSMB7 (UniProt Q99436)
inactive: ibrutinib -0.006 | [1] -0.013 | ralimetinib -0.009 | [2] -0.024 | [3] -0.018 | [4] -0.007 | [5] -0.004 | [6] 0.031 | [7] -0.019 | [8] -0.004

PTEN isoform 2 (UniProt P60484)
inactive: ibrutinib 0.05 | [1] 0.075 | ralimetinib -0.049 | [2] 0.023 | [3] 0.074 | [4] 0.009 | [5] 0.094 | [6] 0.087 | [7] -0.018 | [8] -0.029

PSMD1 (UniProt Q99460)
inactive: ibrutinib -0.035 | [1] -0.007 | ralimetinib 0 | [2] -0.014 | [3] -0.013 | [4] -0.007 | [5] -0.012 | [6] 0.011 | [7] 0.021 | [8] 0.007

PRSS21 (UniProt Q9Y6M0)
inactive: ibrutinib -0.025 | [1] -0.029 | ralimetinib 0.04 | [2] -0.034 | [3] 0.002 | [5] -0.013 | [6] 0.012 | [7] 0.025 | [8] -0.025

Taken from above (6 entries):
PSMC5 (UniProt P62195)
inactive: ibrutinib -0.005 | [1] 0.043 | ralimetinib 0.009 | [2] 0 | [3] 0.021 | [4] 0.015 | [5] -0.03 | [6] 0 | [7] -0.02 | [8] 0.038

PRRC2C isoform 7 (UniProt Q9Y520)
inactive: ibrutinib 0.023 | [1] -0.016 | ralimetinib -0.006 | [2] -0.018 | [3] 0.002 | [4] 0.025 | [5] -0.032 | [6] -0.059 | [7] 0.011 | [8] -0.021

PSMB7 (UniProt Q99436)
inactive: ibrutinib -0.006 | [1] -0.013 | ralimetinib -0.009 | [2] -0.024 | [3] -0.018 | [4] -0.007 | [5] -0.004 | [6] 0.031 | [7] -0.019 | [8] -0.004

PTEN isoform 2 (UniProt P60484)
inactive: ibrutinib 0.05 | [1] 0.075 | ralimetinib -0.049 | [2] 0.023 | [3] 0.074 | [4] 0.009 | [5] 0.094 | [6] 0.087 | [7] -0.018 | [8] -0.029

PSMD1 (UniProt Q99460)
inactive: ibrutinib -0.035 | [1] -0.007 | ralimetinib 0 | [2] -0.014 | [3] -0.013 | [4] -0.007 | [5] -0.012 | [6] 0.011 | [7] 0.021 | [8] 0.007

PRSS21 (UniProt Q9Y6M0)
inactive: ibrutinib -0.025 | [1] -0.029 | ralimetinib 0.04 | [2] -0.034 | [3] 0.002 | [5] -0.013 | [6] 0.012 | [7] 0.025 | [8] -0.025

Further results:

PURA (UniProt Q00577)
inactive: ibrutinib -0.017 | [1] 0.043 | ralimetinib -0.022 | [2] -0.008 | [3] -0.009 | [4] 0.044 | [5] -0.06 | [6] -0.075 | [7] 0.074 | [8] -0.02

PTPRB isoform 3 (UniProt P23467)
inactive: ibrutinib 0.129 | [1] -0.043 | [4] -0.095 | [5] 0.011 | [8] 0.194

PTDSS2 (UniProt Q9BVG9)
inactive: ibrutinib -0.018 | [1] 0.019 | ralimetinib 0.007 | [2] -0.075 | [3] -0.042 | [4] 0.025 | [5] 0.021 | [6] 0.013 | [7] -0.037 | [8] 0.003

PUF60 isoform 2 (UniProt Q9UHX1)
inactive: ibrutinib 0.153 | [1] -0.049 | ralimetinib 0.045 | [2] 0.004 | [3] -0.174 | [4] -0.021 | [6] 0.032 | [7] -0.036 | [8] 0.013

PSMD6 (UniProt Q15008)
inactive: ibrutinib -0.244 | [1] -0.005 | [4] -0.086 | [6] 0.212 | [8] -0.095

PRPS2 isoform 2 (UniProt P11908)
inactive: ibrutinib -0.009 | [1] 0.036 | ralimetinib 0.038 | [2] 0.019 | [3] -0.033 | [4] -0.015 | [5] 0.021 | [6] 0 | [7] -0.033 | [8] 0.008

PUS3 (UniProt Q9BZE2)
inactive: ibrutinib -0.034 | [1] -0.025 | ralimetinib 0.05 | [2] 0.094 | [3] -0.046 | [4] 0.045 | [5] 0.136 | [6] -0.12 | [7] -0.006 | [8] 0

PSMA7 (UniProt H0Y586)
inactive: ibrutinib 0.095 | [1] -0.015 | [3] -0.512 | [4] -0.199 | [6] 0.124 | [8] 0.125

PSMB8 (UniProt P28062)
inactive: ibrutinib -0.028 | [1] -0.068 | ralimetinib -0.043 | [2] -0.015 | [3] 0.11 | [5] -0.001 | [6] 0.191 | [7] 0.053 | [8] -0.004

PRPSAP1 isoform 2 (UniProt Q14558)
inactive: ibrutinib -0.019 | [1] 0.009 | ralimetinib -0.007 | [2] -0.066 | [3] 0.007 | [4] -0.011 | [5] 0 | [6] -0.017 | [7] 0.018 | [8] 0

PRSS50 (UniProt Q9UI38)
inactive: ibrutinib 0.03 | [1] 0 | [5] -0.036 | [8] -0.053

PSMB6 (UniProt P28072)
inactive: ibrutinib -0.02 | [1] -0.017 | ralimetinib -0.012 | [2] -0.034 | [3] -0.027 | [4] -0.022 | [5] -0.019 | [6] -0.013 | [7] -0.021 | [8] -0.003

PSMC6 (UniProt P62333)
inactive: ibrutinib -0.013 | [1] 0.01 | ralimetinib 0.004 | [2] 0.055 | [3] -0.002 | [4] -0.006 | [5] 0.014 | [6] -0.01 | [7] 0 | [8] 0.03

PSRC1 (UniProt Q6PGN9)
inactive: ibrutinib 0.138 | [1] 0.017 | ralimetinib -0.006 | [2] -0.013 | [3] 0.049 | [4] 0.02 | [5] -0.081 | [6] 0.163 | [7] -0.052 | [8] -0.002

PSMB10 (UniProt P40306)
inactive: ibrutinib 0.09 | [1] 0.017 | ralimetinib -0.104 | [2] 0.057 | [5] 0 | [6] 0.032 | [7] 0.024 | [8] 0.069

PTK2 isoform 2 (UniProt Q05397)
inactive: ibrutinib 0.173 | [1] -0.047 | [3] -0.002 | [5] -0.138 | [8] -0.053
